Measured values: US20200008825A1, “SUSTAINED INTRATONSILLAR DRUG DELIVERY WITH NEEDLE ARRAY” (SOUTHERN RESEARCH INSTITUTE, priority 2017, published 2020)
For at least one compound, name, drawing or mass did not settle the structure.

System: enlarged palatine tonsils
Test: focal tonsillar corticosteroid injections in rabbits having enlarged palatine tonsils, tonsil size
Type: in vivo, rabbit
Conditions: rabbits with enlarged palatine tonsils; corticosteroid injections compared to those treated with saline

C[C@@H]1C[C@H]2[C@@H]3C[C@H](F)C4=CC(=O)C=C[C@]4(C)[C@@]3(F)[C@@H](O)C[C@]2(C)[C@@]1(O)C(=O)SCF [fluticasone]
size of the tonsils: significantly decreased
